Measurements from US9708498B2, “Azo compound, ink containing azo compound, display including said ink and electronic paper” (MITSUBISHI CHEMICAL CORPORATION, priority 2012, dated 2017).
Some results were stated once for a whole list of compounds, not compound by compound.

Assay: Solubility C of the compound in n-decane at 5° C. (saturated solution, absorbance) and product εC
Format: physicochemical
Conditions: addition stopped when a specific solubility was ascertained
Experimental: The solubility C of each compound in n-decane was determined in the following manner. Each of compounds 1 to 11 and comparative compound 1 was added to n-decane until some of the compound came to remain undissolved, and the mixture was subjected to an ultrasonic treatment at 30° C. for 30 minutes.
After the addition, each mixture was subjected to a 30-minute ultrasonic treatment at 30° C. This mixture was allowed to stand at 5° C. for 24 hours and then subjected to centrifugal filtration with a 0.1-μm filter using a miniature centrifugal machine (centrifugal force, 5,200×g). The saturated solution obtained was diluted to an adequate concentration and examined for absorption spectrum with Hitachi Spectrophotometer U-4100 using a quartz cell having a measuring optical-path length of 10 mm. The concentration of each compound was determined from a relationship between the absorbance at the absorption maximum wavelength λmax (nm) and the molar extinction coefficient ε (L·mol^−1·cm^−1) determined beforehand, and the solubility C (mol·L^−1) thereof was calculated. Furthermore, the product εC of the molar extinction coefficient ε (L·mol^−1·cm^−1) and the solubility C (mol·L^−1) was determined.

Structure (SMILES) | solubility in n-decane (in words)
CCCCC(CC)CN(CC(CC)CCCC)c1ccc(N=Nc2sc(N=Nc3ccc(CCC)cc3)c(C)c2C#N)c(NC(C)=O)c1 (stereo not shown) [Compound 3] | highly soluble
CCCCCc1ccc(N=Nc2cc(C(=O)OCCC)c(N=Nc3ccc(N(CC(CC)CCCC)CC(CC)CCCC)cc3CC)s2)cc1 (stereo not shown) [Compound 5] | highly soluble
CCCCc1ccc(N=Nc2cc(C#N)c(N=Nc3sc(N(CC(CC)CCCC)CC(CC)CCCC)nc3C(C)(C)C)s2)c(C)c1 (stereo not shown) [Compound 11] | highly soluble
CCCCc1ccc(N=Nc2sc(N=Nc3cc(OCC)c(N(CC(CC)CCCC)CC(CC)CCCC)cc3OCC)c(C#N)c2C)cc1 (stereo not shown) [Compound 4] | highly soluble
